According to PubChem BioAssay AID328 (DTP/NCI, 2004):
The list is a part of this screen's results and no random one: it is rich in T/C values a quarter to a half above the control, in often repeated tests (any T/C) and in doses without a T/C. Other doses and runs of a compound stand elsewhere. T/C: endpoint of the treated group in % of that of the vehicle group. Some entries give survivors of the animals treated and no T/C: the source holds a T/C of zero for them, seemingly a mark for toxic or unscored doses. Some survivor counts are full or nearly so, which does not show that the dose was tolerated: the source hardly ever lists a survival T/C far under the control, and the zero likely stands for such cases as well. Survivors were counted at the toxicity check, usually on the fifth day, unless a day is given; later deaths do not show. Schedules are NCI's codes, taken here to give the interval after Q, in days (D) or hours (H), and the number of doses after X. Some doses were run more than once; the results are listed from low to high. Some schedule codes hold Z or #, which are not explained here. Where survival is the endpoint, the PubChem record calls one and a half times the control and up active, and a quarter to a half above the control has no call in these data; cut-offs in other NCI protocols can differ.

System: BDF1 mice, P388 leukemia ip, median survival T/C
Experiment: NCI In Vivo Anticancer Drug Screen. Data for tumor model P388 Leukemia (intraperitoneal) in B6D2F1 (BDF1) mice
Conditions: T/C endpoint: median survival time, higher T/C = longer survival
Outline: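 Survival ratio, drug arm over vehicle arm, in mice with a transplanted tumour.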

[1] = dose: 50.0 mg/kg/injection, schedule: Q01DX009 (ip), vehicle: Klucel (hydroxypropylcellulose) (HPC)
[2] = dose: 100.0 mg/kg/injection, schedule: Q01DX009 (ip), vehicle: Klucel (hydroxypropylcellulose) (HPC)
[3] = dose: 200.0 mg/kg/injection, schedule: Q01DX009 (ip), vehicle: Klucel (hydroxypropylcellulose) (HPC)
[4] = dose: 400.0 mg/kg/injection, schedule: Q01DX009 (ip), vehicle: Klucel (hydroxypropylcellulose) (HPC)
[5] = dose: 200.0 mg/kg/injection, schedule: Q04DX002 (ip), vehicle: saline with Tween-80
[6] = dose: 400.0 mg/kg/injection, schedule: Q04DX002 (ip), vehicle: saline with Tween-80

BrCCN(CCBr)c1ccc2c3c(cccc13)-c1ccccc1-2
T/C (dose: 1.56 mg/kg/injection, schedule: Q01DX009 (ip), vehicle: Klucel (hydroxypropylcellulose) (HPC)): 145 % of control
T/C (dose: 13.0 mg/kg/injection, schedule: Q01DX009 (ip), vehicle: Klucel (hydroxypropylcellulose) (HPC)): 146 % of control
T/C (dose: 105.0 mg/kg/injection, schedule: Q01DX009 (ip), vehicle: Klucel (hydroxypropylcellulose) (HPC)): 130 % of control
survivor count (dose: 264.0 mg/kg/injection, schedule: Q04DX003 (ip), vehicle: saline with Tween-80): 6 of 6

C=CC[n+]1cccc2ccccc21
survivor count [1]: 6 of 6

COC(=O)C1=C(C)NC2(C)SC1C(C)C2C(=O)OC (stereo not given)
T/C (dose: 50.0 mg/kg/injection, schedule: Q01DX009 (ip), vehicle: saline with Tween-80): 125 % of control

COC(=O)C12Oc3ccc(-c4ccc5c(c4O)C(O)=C4C(=O)CC(C)C(O)C4(C(=O)OC)O5)c(O)c3C(O)=C1C(=O)CC(C)C2O (stereo not given)
T/C (dose: 1.56 mg/kg/injection, schedule: Q01DX009 (ip), vehicle: saline): 133 % of control

COc1cc2c(cc1OC)-c1cc3cc(OC)c(OC)cc3c(C)[n+]1CC2 (tested in a mixture with another compound)
survivor count (dose: 25.0 mg/kg/injection, schedule: Q01DX009 (ip), vehicle: Klucel (hydroxypropylcellulose) (HPC)): 3 of 3
survivor count [2]: 3 of 3
survivor count [3]: 0 of 3
survivor count [4]: 0 of 3

CC(=O)c1ccc(C(=O)CC(O)(C(F)(F)F)C(F)(F)F)cc1
survivor count (dose: 200.0 mg/kg/injection, schedule: Q01DX009 (ip), vehicle: other): 5 of 6
survivor count (dose: 200.0 mg/kg/injection, schedule: Q04DX003 (ip), vehicle: other): 3 of 6

Nc1nccnc1C(=O)O
T/C (dose: 200.0 mg/kg/injection, schedule: Q01DX009 (ip), vehicle: water): 126 % of control

O=C(O)c1ccccc1O.O=C(O)c1ccccc1O.[O]=[V]
survivor count (dose: 32.0 mg/kg/injection, schedule: Q01DX010 (ip), vehicle: carboxymethylcellulose (CMC)): 0 of 6
survivor count (dose: 64.0 mg/kg/injection, schedule: Q01DX010 (ip), vehicle: carboxymethylcellulose (CMC)): 0 of 6

CC1CCC2=C(C1)S(=O)(=O)CC2 (stereo not given)
survivor count (dose: 100.0 mg/kg/injection, schedule: Q04DX002 (ip), vehicle: saline with Tween-80): 0 of 6
survivor count [5]: 0 of 6
survivor count [6]: 0 of 6

Cc1ccccc1N=C(N)N=C(N)N
survivor count (dose: 200.0 mg/kg/injection, schedule: Q01DX009 (ip), vehicle: saline): 0 of 6

COc1ccc2[nH]c3c(C)c4cc[n+](CCCCCCCC[n+]5ccc6c(C)c7[nH]c8ccc(OC)cc8c7c(C)c6c5)cc4c(C)c3c2c1
T/C (dose: 3.13 mg/kg/injection, schedule: Q04DX003 (ip), vehicle: other): 128 % of control
T/C (dose: 12.5 mg/kg/injection, schedule: Q04DX003 (ip), vehicle: other): 125 % of control
T/C (dose: 25.0 mg/kg/injection, schedule: Q04DX003 (ip), vehicle: other): 128 % of control
survivor count (dose: 50.0 mg/kg/injection, schedule: Q04DX003 (ip), vehicle: other): 3 of 6

CCN1c2ccccc2CC(CCN(C(C)C)C(C)C)(C(N)=O)c2ccccc21 (stereo not given)
survivor count [5]: 0 of 6
survivor count [6]: 0 of 6

Cc1cc(=O)[nH]c(N/N=C/C(C)C)n1
survivor count [3]: 6 of 6
survivor count [4]: 0 of 6

CC[C@H]1CN2CCc3cc(OC)c(OC)cc3[C@@H]2C[C@@H]1C[C@H]1NCCc2cc(OC)c(OC)cc21
T/C (dose: 1.0 mg/kg/injection, schedule: Q01DX005 (ip), vehicle: saline): 140 % of control
T/C (dose: 1.0 mg/kg/injection, schedule: Q01DX009 (ip), vehicle: saline): 145 % of control
T/C (dose: 1.75 mg/kg/injection, schedule: Q01DX010 (ip), vehicle: saline): 127 and 140 % of control
T/C (dose: 4.0 mg/kg/injection, schedule: Q## X024 (ip), vehicle: saline): 135 % of control
T/C (dose: 7.0 mg/kg/injection, schedule: Q01DX010 (ip), vehicle: saline): 125 % of control
T/C (dose: 7.78 mg/kg/injection, schedule: Q04DX003 (ip), vehicle: saline): 128 and 145 % of control
survivor count (dose: 8.0 mg/kg/injection, schedule: Q01DX009 (ip), vehicle: saline): 10 of 10
T/C (dose: 8.0 mg/kg/injection, schedule: Q## X008 (ip), vehicle: saline): 140 % of control
T/C (dose: 8.0 mg/kg/injection, schedule: Q## X016 (ip), vehicle: saline): 130 % of control
T/C (dose: 8.0 mg/kg/injection, schedule: Q## X024 (ip), vehicle: saline): 145 % of control
T/C (dose: 9.0 mg/kg/injection, schedule: Q04DX003 (ip), vehicle: saline): 132 % of control
survivor count (dose: 12.0 mg/kg/injection, schedule: Q01DX009 (oral), vehicle: saline): 9 of 10
survivor count (dose: 14.0 mg/kg/injection, schedule: Q01DX010 (ip), vehicle: saline): 2 of 6 and 6 of 6
T/C (dose: 16.0 mg/kg/injection, schedule: Q01DX001 (ip), vehicle: saline): 140 % of control
survivor count (dose: 16.0 mg/kg/injection, schedule: Q01DX005 (ip), vehicle: saline): 5 of 10
survivor count (dose: 16.0 mg/kg/injection, schedule: Q01DX009 (ip), vehicle: saline): 4 of 10
survivor count (dose: 24.0 mg/kg/injection, schedule: Q01DX009 (oral), vehicle: saline): 0 of 10
survivor count (dose: 32.0 mg/kg/injection, schedule: Q04DX003 (ip), vehicle: saline): 7 of 8
survivor count (dose: 32.0 mg/kg/injection, schedule: Q## X008 (ip), vehicle: saline): 6 of 10
survivor count (dose: 32.0 mg/kg/injection, schedule: Q## X024 (ip), vehicle: saline): 7 of 10
survivor count (dose: 36.0 mg/kg/injection, schedule: Q04DX003 (ip), vehicle: saline): 7 of 8, 7 of 7, 8 of 8
survivor count (dose: 48.0 mg/kg/injection, schedule: Q01DX001 (oral), vehicle: saline): 0 of 10
survivor count (dose: 48.0 mg/kg/injection, schedule: Q01DX009 (oral), vehicle: saline): 0 of 10
survivor count (dose: 64.0 mg/kg/injection, schedule: Q01DX001 (ip), vehicle: saline): 3 of 10
survivor count (dose: 64.0 mg/kg/injection, schedule: Q04DX003 (ip), vehicle: saline): 0 of 8
survivor count (dose: 64.0 mg/kg/injection, schedule: Q## X002 (ip), vehicle: saline): 0 of 10
survivor count (dose: 64.0 mg/kg/injection, schedule: Q## X008 (ip), vehicle: saline): 0 of 10
survivor count (dose: 64.0 mg/kg/injection, schedule: Q## X016 (ip), vehicle: saline): 0 of 10
survivor count (dose: 96.0 mg/kg/injection, schedule: Q01DX001 (oral), vehicle: saline): 0 of 10
survivor count (dose: 128.0 mg/kg/injection, schedule: Q01DX001 (ip), vehicle: saline): 0 of 10
survivor count (dose: 128.0 mg/kg/injection, schedule: Q## X008 (ip), vehicle: saline): 0 of 10
survivor count (dose: 192.0 mg/kg/injection, schedule: Q01DX001 (oral), vehicle: saline): 0 of 10
survivor count (dose: 384.0 mg/kg/injection, schedule: Q01DX001 (oral), vehicle: saline): 0 of 10

O=CN1CCN(c2ccc([N+](=O)[O-])c3no[n+]([O-])c23)CC1
T/C (dose: 3.75 mg/kg/injection, schedule: Q01DX009 (ip), vehicle: saline with Tween-80): 135 % of control
T/C (dose: 7.5 mg/kg/injection, schedule: Q01DX009 (ip), vehicle: saline with Tween-80): 142 % of control
T/C (dose: 15.0 mg/kg/injection, schedule: Q01DX009 (ip), vehicle: saline with Tween-80): 129 % of control

O=NN(CS(=O)(=O)O)c1ccccc1
survivor count [4]: 5 of 6

CN(C)CCCNC(=O)Nc1ccccc1
survivor count (dose: 400.0 mg/kg/injection, schedule: Q04DX003 (ip), vehicle: Klucel (hydroxypropylcellulose) (HPC)): 0 of 6

CCOc1ccc(/C=N\N=C\c2ccc(OCC)cc2)cc1
survivor count [1]: 6 of 6
survivor count [2]: 6 of 6
survivor count [3]: 6 of 6
survivor count [4]: 6 of 6
